From patent publication EP0652290A1, “Method for regulation of NF-kB” (YISSUM RESEARCH DEVELOPMENT COMPANY OF THE HEBREW …, priority 1993, dated 1995)
pIC50: −log10 of the molar value. For some assays here: Part of at least one peptide drawing is inferred or uncertain, most often the ends. For some assays here: At least one structure is not confirmed: it was looked up by name or label, or the drawing left a doubt. *1 amine or outer side, *2 acyl side, *3 side chain or, on linkers, in order; H or OH if unused. Where a SMILES comes first, the peptide text is derived from it. [ ]: non-standard residue; d: D form. Nle = CCCC[C@H](N)C(=O)O; CO = O=C([*:1])[*:2]

Columns and labels:
NF-κB [1] = assay: NF-κB DNA binding by EMSA of nuclear extracts, costimulated Jurkat cells; type: cell-based; details: late time points, 50 µg/ml, PMA + Ca⁺⁺ ionophore
[2] = test system: NF-κB-dependent promoters; assay: 2X kB-LUC / RSV-LUC luciferase reporter in Hep G2 cells; type: cell-based, Human; details: 200 µM for 3 hours, TNFα 20ng/ml, Hep G2, 2X kB-LUC versus RSV-LUC
NF-κB [3] = assay: Dose response of NF-κB DNA binding (EMSA) in Hela cells stimulated with TNFα; type: cell-based
Protocol: Hela cells were pretreated for 5 hours with the indicated concentration of peptide aldehyde inhibitor or left untreated and then stimulated with TNFα (15ng/ml) for 20 minutes. The cells were then harvested for whole cell extract preparation. Extracts were analyzed for NF-κB DNA binding activity by electrophoretic mobility shift assay (EMSA) and relative IκBα protein levels were measured by Western blot analysis as shown in FIGURE 9.
IC₅₀ for ZLLF was 3.4 µM and 12.1 µM for AcLLnL.

IκBα [4] = assay: IκB degradation by Western blot in HeLa S3 or Hep G2 cells after TNFα, IL-1 or PMA; type: cell-based, Human; details: HeLa S3 or Hep G2, 4 hours pretreatment, 20 minutes
Protocol: Human HeLa S3 or Hep G2 cells were pretreated for 4 hours with the indicated peptide aldehyde prior to simulation with either TNFα (20ng/ml), IL-1(20 ng/ml) or PMA (100 µg/ml). The cells were harvested 20 minutes after induction and the extent of IκB degradation was examined via Western blot analysis using IκB specific antisera. FIGURE 7 summarizes the ability of related peptide aldehydes to block IκB degradation induced by a variety of agents which activate NF-κB. (+++) indicates greater than 85% inhibition, (++) indicates greater than 60% inhibition and (-) indicates no inhibition of IκB degradation was observed.

IκBα [5] = assay: IκBα phosphorylation and degradation by Western blot, Jurkat cells stimulated with PMA and Ca⁺⁺ ionophore; type: cell-based; details: 4 hours pretreatment with 50 µg/ml, PMA + Ca⁺⁺ ionophore
NF-κB [6] = assay: NF-κB activation by EMSA, Jurkat cells stimulated with TNF-α; type: cell-based; details: Jurkat (TNF-α) and 70Z/3 (PMA) cell cultures; even at high concentrations
Protocol: The functional significance of the inducible decay of IκBα for activation of NF-κB was tested by exposure of cell cultures to various protease inhibitors. Six distinct serine protease inhibitors with chymotrypsin-like specificity efficiently prevent the induction of NF-κB DNA-binding activity in response to PMA and TNF-α (Table 1). Constitutive DNA-binding activities, including Oct-1, were not affected and no significant cell death was observed by a dye-exclusion assay and phase-contrast microscopy at inhibitor concentrations preventing […] activation. Leupeptin, antipain and the trypsin inhibitor tosyl-Lys-methylester were not effective, even at high concentrations.

SMILES	inducible NF-κB activity (NF-κB [1])	κB-dependent transcriptional activation (luciferase activity) [2]	TNFα induced NF-κB activity (NF-κB [3]; 1µM to 200 µM, 5 hours pretreatment, TNFα 15ng/ml 20 minutes)	pIC50 (NF-κB [3]; densitometric scanning of the EMSA and Western blots, TNFα, read-out: IC₅₀)	rank as inhibitor of proteolysis of IκBα (IκBα [4])	IκBα degradation (IκBα [5])	IκBα phosphorylation (IκBα [5])	induction of NF-κB DNA-binding activity in response to PMA and TNF-α (NF-κB [6])
CCCC[C@@H](C=O)NC(=O)[C@H](CC(C)C)NC(=O)[C@H](CC(C)C)NC(C)=O [AcLLnL, N-acetyl-Leu-Leu-Norleucinal] (Ac-Leu-Leu-[Nle]-aldehyde)	nearly all of the inducible NF-κB activity was abolished	selectively inhibits	inhibited TNFα induced NF-κB activity in a dose-dependent manner	4.92	followed by AcLLnL and AcALLnL	completely blocked	did not interfere	–
CC(C)[C@H](NC(=O)[C@H](CCCNC(=N)N)NC(=O)N[C@@H](Cc1ccccc1)C(=O)O)C(=O)N[C@H](C=O)CCCNC(=N)N [antipain] ({Phe-CO}-Arg-Val-Arg-aldehyde)	–	–	–	–	–	–	–	not effective
